In publication PMC4546166:
No constants are given. Whether binding was seen depends on the method and setting. Binding seen in cells or lysates may run through a third protein. Some results given as binding are weak or reduced against the parent protein; the word gives no strength.

Protein sequences, listed by entry. Tags and fused reporters are not part of them.
UniProt Q9ESD7: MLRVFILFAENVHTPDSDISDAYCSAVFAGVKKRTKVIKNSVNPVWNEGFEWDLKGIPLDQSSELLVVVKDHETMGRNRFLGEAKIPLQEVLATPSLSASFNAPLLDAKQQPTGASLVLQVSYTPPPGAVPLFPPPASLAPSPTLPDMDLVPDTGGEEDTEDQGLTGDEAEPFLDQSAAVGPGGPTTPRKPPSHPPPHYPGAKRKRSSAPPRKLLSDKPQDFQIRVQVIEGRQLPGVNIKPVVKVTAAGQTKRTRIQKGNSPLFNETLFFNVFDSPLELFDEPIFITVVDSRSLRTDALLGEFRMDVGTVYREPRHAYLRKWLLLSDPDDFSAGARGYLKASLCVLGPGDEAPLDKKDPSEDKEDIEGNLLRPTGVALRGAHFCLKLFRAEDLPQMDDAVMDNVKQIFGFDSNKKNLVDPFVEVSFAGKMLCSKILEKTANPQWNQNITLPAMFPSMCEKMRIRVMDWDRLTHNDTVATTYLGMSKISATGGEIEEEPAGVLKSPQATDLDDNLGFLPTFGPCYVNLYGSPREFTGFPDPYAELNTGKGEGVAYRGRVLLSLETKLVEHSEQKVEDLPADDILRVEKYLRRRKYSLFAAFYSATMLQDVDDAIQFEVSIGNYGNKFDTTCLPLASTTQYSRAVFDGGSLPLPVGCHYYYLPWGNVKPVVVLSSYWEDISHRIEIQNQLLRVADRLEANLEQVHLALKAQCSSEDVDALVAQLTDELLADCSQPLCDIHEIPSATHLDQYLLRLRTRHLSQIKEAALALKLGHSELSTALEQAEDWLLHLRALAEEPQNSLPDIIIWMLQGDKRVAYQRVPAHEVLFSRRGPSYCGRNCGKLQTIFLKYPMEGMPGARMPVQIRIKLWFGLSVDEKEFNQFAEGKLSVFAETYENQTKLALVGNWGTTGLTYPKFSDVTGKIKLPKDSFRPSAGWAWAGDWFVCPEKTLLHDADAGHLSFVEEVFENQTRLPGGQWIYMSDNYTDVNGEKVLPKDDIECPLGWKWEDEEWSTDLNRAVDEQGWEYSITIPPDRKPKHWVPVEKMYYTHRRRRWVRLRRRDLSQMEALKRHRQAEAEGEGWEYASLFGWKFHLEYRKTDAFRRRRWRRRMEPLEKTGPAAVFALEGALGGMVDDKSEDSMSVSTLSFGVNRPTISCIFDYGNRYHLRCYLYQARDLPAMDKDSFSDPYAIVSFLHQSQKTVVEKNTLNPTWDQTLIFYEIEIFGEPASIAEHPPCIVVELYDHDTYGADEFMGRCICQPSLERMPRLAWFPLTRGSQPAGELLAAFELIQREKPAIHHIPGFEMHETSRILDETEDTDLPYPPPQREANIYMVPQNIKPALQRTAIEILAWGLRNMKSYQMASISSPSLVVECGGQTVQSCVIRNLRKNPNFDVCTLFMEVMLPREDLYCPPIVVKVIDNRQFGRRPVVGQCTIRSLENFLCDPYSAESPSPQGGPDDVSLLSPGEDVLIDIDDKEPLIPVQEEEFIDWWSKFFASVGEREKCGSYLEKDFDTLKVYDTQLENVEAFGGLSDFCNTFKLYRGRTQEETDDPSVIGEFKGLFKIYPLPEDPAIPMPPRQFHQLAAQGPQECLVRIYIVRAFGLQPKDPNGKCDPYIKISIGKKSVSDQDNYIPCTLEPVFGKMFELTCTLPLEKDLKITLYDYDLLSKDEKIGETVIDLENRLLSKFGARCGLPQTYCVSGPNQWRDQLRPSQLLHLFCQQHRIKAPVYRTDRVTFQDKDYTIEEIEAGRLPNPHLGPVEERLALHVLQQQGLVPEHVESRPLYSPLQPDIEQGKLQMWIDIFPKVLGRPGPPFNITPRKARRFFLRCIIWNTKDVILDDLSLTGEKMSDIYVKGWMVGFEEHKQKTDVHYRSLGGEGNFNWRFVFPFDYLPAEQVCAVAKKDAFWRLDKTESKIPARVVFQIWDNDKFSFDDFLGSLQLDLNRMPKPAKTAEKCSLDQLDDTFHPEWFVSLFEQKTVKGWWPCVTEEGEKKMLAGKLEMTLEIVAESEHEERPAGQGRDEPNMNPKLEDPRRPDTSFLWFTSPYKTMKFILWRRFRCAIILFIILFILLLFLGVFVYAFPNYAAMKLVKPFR

Target: T1, GTPase regulator associated with focal adhesion kinase-1 (GRAF1) (mouse (endogenous in quadriceps muscle)) (UniProt Q6ZQ82)
T1 sequence: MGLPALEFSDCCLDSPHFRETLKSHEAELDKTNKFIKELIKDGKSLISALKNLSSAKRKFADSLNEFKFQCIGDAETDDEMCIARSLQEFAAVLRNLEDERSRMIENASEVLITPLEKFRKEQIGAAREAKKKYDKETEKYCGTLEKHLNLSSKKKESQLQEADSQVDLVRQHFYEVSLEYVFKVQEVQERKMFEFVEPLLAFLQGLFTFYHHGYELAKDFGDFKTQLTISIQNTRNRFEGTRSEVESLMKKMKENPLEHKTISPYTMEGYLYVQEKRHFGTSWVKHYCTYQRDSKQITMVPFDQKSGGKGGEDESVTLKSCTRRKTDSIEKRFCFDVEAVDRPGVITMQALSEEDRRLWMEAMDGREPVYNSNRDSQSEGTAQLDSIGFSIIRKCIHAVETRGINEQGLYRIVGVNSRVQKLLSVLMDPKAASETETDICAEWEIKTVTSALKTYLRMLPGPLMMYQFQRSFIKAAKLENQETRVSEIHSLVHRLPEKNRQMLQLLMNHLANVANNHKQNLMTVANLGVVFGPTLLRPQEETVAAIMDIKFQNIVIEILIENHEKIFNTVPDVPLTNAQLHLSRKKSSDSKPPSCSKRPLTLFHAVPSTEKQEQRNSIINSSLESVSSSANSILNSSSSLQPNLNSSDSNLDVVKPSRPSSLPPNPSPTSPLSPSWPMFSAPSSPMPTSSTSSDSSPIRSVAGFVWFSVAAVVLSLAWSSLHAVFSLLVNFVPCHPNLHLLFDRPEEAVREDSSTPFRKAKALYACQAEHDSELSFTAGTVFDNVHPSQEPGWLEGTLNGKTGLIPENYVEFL
Experiment: co-IP; anti-GRAF1 rabbit polyclonal antibody and Protein A Sepharose; 1000 ug cleared lysate of mouse quadriceps muscle 7 days after CTX-induced injury, in modified RIPA buffer (50 mM HEPES pH 7.2, 0.15 M NaCl, 2 mM EDTA, 0.1 % NP-40, 0.05 % deoxycholate, 0.5 % Triton X-100), overnight at 4 °C; blots probed with anti-dysferlin and anti-GRAF1

dysferlin (from UniProt Q9ESD7 1-2090)
binding: binds
